# Screening data

The results are deposited in PubChem (AID504749; NCATS, 2011).

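A panel of P. falciparum strains inside erythrocytes is exposed to compounds for three days, then a DNA-binding dye reports the amount of parasite DNA. Each compound was titrated across a series from about 0.000037 to 29 µM. The number is the fitted AC50, the concentration giving a half-maximal change in signal; a lower value means higher potency, whether the curve shows a decrease or an increase. Calls follow the curve class and fit quality: every row here is inconclusive, covering signal-raising curves and weak, poorly fitted, partial or highest-dose-only inhibition curves.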

Values are in nM. Every entry below has the call inconclusive. Only part of the assay is shown, chiefly results filed as inconclusive. A potency from a partial, single-point or poor curve is only a rough figure. Some entries filed as inconclusive have a full curve. The first word of each remark tells which way the curve ran; it can be opposite to the aim of the assay.

{"compound": "O=C(O)CCCc1ccc(N(CCCl)CCCl)cc1", "setting": "7G8", "fitted potency (nM)": "8912", "curve": "inhibitor, partial curve"}
{"compound": "Cn1nnc2c(C(N)=O)ncn2c1=O", "setting": "CP215", "fitted potency (nM)": "21331", "curve": "activator, partial curve, poor fit"}
{"compound": "Cn1nnc2c(C(N)=O)ncn2c1=O", "setting": "DIV14", "fitted potency (nM)": "16.9", "curve": "activator, full curve, poor fit"}
{"compound": "O=C(O)c1cc(=O)[nH]c(=O)[nH]1", "setting": "CP192", "fitted potency (nM)": "0.5", "curve": "activator"}
{"compound": "O=C(O)c1cc(=O)[nH]c(=O)[nH]1", "setting": "7G8", "fitted potency (nM)": "1122", "curve": "activator, partial curve"}
{"compound": "c1ccc2c(c1)sc1ccccc12", "setting": "parasite line B", "fitted potency (nM)": "15848", "curve": "inhibitor, single point"}
{"compound": "C=CCN1CCc2nc(N)sc2CC1", "setting": "7G8", "fitted potency (nM)": "17782", "curve": "inhibitor, single point"}
{"compound": "C=CCN1CCc2nc(N)sc2CC1", "setting": "P93_24", "fitted potency (nM)": "3981", "curve": "inhibitor, single point"}
{"compound": "FC(F)OC(Cl)C(F)(F)F", "stereo": "stereo not given", "setting": "CP268", "fitted potency (nM)": "0.7", "curve": "activator"}
{"compound": "FC(F)OC(Cl)C(F)(F)F", "stereo": "stereo not given", "setting": "DIV17", "fitted potency (nM)": "15101", "curve": "inhibitor, single point"}
{"compound": "C=C1C(CCl)(CCl)C2(Cl)C(Cl)C(Cl)C1(Cl)C2(Cl)Cl", "stereo": "stereo not given", "setting": "CP315", "fitted potency (nM)": "19011", "curve": "inhibitor, single point"}
{"compound": "C=C1C(CCl)(CCl)C2(Cl)C(Cl)C(Cl)C1(Cl)C2(Cl)Cl", "stereo": "stereo not given", "setting": "CP266", "fitted potency (nM)": "11995", "curve": "inhibitor, partial curve, poor fit"}
{"compound": "O=C(O)c1ccc2[nH]cc(CCCCN3CC=C(c4ccccc4)CC3)c2c1", "setting": "CP247", "fitted potency (nM)": "3162", "curve": "inhibitor, single point"}
{"compound": "O=C(O)c1ccc2[nH]cc(CCCCN3CC=C(c4ccccc4)CC3)c2c1", "setting": "DIV14", "fitted potency (nM)": "21331", "curve": "inhibitor, partial curve, poor fit"}
{"compound": "O=C(O)c1ccc2[nH]cc(CCCCN3CC=C(c4ccccc4)CC3)c2c1", "setting": "CP297", "fitted potency (nM)": "1694", "curve": "inhibitor, partial curve, poor fit"}
{"compound": "CCC1OC(=O)C(C)[C@@H](O[C@H]2C[C@@](C)(OC)C(O)C(C)O2)C(C)[C@@H](O[C@@H]2OC(C)CC(N(C)C)C2O)[C@@](C)(O)CC(C)C(=O)[C@@H](C)C(O)[C@]1(C)O", "stereo": "stereo not given in full", "setting": "TAB109", "fitted potency (nM)": "2239", "curve": "inhibitor, full curve, poor fit"}
{"compound": "CCC1OC(=O)C(C)[C@@H](O[C@H]2C[C@@](C)(OC)C(O)C(C)O2)C(C)[C@@H](O[C@@H]2OC(C)CC(N(C)C)C2O)[C@@](C)(O)CC(C)C(=O)[C@@H](C)C(O)[C@]1(C)O", "stereo": "stereo not given in full", "setting": "CP335", "fitted potency (nM)": "1901", "curve": "inhibitor, full curve"}
{"compound": "CCC1OC(=O)C(C)[C@@H](O[C@H]2C[C@@](C)(OC)C(O)C(C)O2)C(C)[C@@H](O[C@@H]2OC(C)CC(N(C)C)C2O)[C@@](C)(O)CC(C)C(=O)[C@@H](C)C(O)[C@]1(C)O", "stereo": "stereo not given in full", "setting": "W2", "fitted potency (nM)": "10690", "curve": "inhibitor, single point"}

Once more, the final 2:

{"compound": "CCC1OC(=O)C(C)[C@@H](O[C@H]2C[C@@](C)(OC)C(O)C(C)O2)C(C)[C@@H](O[C@@H]2OC(C)CC(N(C)C)C2O)[C@@](C)(O)CC(C)C(=O)[C@@H](C)C(O)[C@]1(C)O", "stereo": "stereo not given in full", "setting": "CP335", "fitted potency (nM)": "1901", "curve": "inhibitor, full curve"}
{"compound": "CCC1OC(=O)C(C)[C@@H](O[C@H]2C[C@@](C)(OC)C(O)C(C)O2)C(C)[C@@H](O[C@@H]2OC(C)CC(N(C)C)C2O)[C@@](C)(O)CC(C)C(=O)[C@@H](C)C(O)[C@]1(C)O", "stereo": "stereo not given in full", "setting": "W2", "fitted potency (nM)": "10690", "curve": "inhibitor, single point"}